Experimental findings from PubChem BioAssay AID651803 (National Center for Advancing Translational Sciences (NCATS), 2012) are described below.

Amino acid sequences for entries named in this document (tags omitted). A change or cut given only in a name is not applied to a line headed by its entry.
UniProt P11308: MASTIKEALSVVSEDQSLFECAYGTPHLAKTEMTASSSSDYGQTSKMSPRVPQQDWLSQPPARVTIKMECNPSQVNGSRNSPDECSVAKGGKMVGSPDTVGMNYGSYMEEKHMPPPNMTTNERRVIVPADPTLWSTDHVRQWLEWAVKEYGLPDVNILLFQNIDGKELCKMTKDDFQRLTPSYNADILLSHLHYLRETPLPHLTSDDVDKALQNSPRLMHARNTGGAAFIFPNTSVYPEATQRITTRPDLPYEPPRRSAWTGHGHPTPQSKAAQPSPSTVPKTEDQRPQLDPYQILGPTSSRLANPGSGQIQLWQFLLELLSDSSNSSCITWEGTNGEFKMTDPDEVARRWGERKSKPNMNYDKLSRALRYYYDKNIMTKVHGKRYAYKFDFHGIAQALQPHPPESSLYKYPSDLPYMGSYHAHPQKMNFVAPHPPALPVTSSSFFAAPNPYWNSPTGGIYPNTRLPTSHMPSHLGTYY

Structures are written as SMILES. Fewer than 10 of roughly 1,200 compounds were called active. Calls come from the whole dose curve; as a rule, active = well fitted curve in the direction sought with a large enough effect; inconclusive = small, poorly fitted or top-dose-only effect, or another doubt; inactive = no such curve, though single readings can be large or run the other way. This is one part of the list.

The target in this test is Transcriptional regulator ERG (Homo sapiens) (UniProt P11308). Put plainly: qHTS for Small Molecule Inhibitors of the ERG Ets/DNA interaction: TR assay against cherry picks. Note: % of control where 0% means no effect. The conditions noted are these: ERG Ets domain-DNA fluorescence polarization, Texas red probe; at 154 µM (top of the series). An outline of the steps: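 Polarization read sequentially for fluorescein (ex 480/em 535 nm) and Texas red (ex 555/em 632 nm) probes, 5 nM and 100 nM solutions, displaced from His-ERG Ets domain (1 uM solution), pH 7.5 Tris/KCl/EDTA/DTT buffer.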
In general terms: In qHTS, concentration-response curves come from the screen itself.
`COc1ccc(S(=O)(=O)N2CCOCC2)cc1NC(=O)CSc1nnc2n1CCCCC2`: the activity change, negative = inhibition is inactive: 2.84%. As to `C/C(=N\Nc1ccc(C#N)cc1[N+](=O)[O-])c1ccc(C)o1`, the activity change, negative = inhibition is inactive: 0.206%. With `COc1ccc(NC(=O)NCc2ccccn2)c(OC)c1`, the activity change, negative = inhibition is inactive: -2.62%. With `CCOC(=O)CSc1nc2ccc(NC(=O)c3ccc(F)cc3)cc2s1` the figure was inactive: 4.85%; with `COc1ccc(OC)c(NC(=O)Cn2cnc3sc(C)c(S(=O)(=O)N4CCN(c5ccccc5OC)CC4)c3c2=O)c1`, inactive: -7.07%; with `COC(=O)c1ccc2c(=O)n(CCN3CCOCC3)c(SCC(=O)Nc3ccc(OC)cc3OC)nc2c1`, inactive: 7.16%. As to `COc1ccc(-c2cccc(NS(=O)(=O)c3cc([N+](=O)[O-])ccc3C)c2)nn1`, the activity change, negative = inhibition was inactive: -11.7%. As to `Cc1cccn2c(CNCCc3ccccn3)c(C(=O)N3CCOCC3)nc12`, the activity change, negative = inhibition was inactive: 14.4%. Turning to `COC(=O)c1ccc(/C=C2\Oc3ccccc3NC2=O)cc1`, the activity change, negative = inhibition was inactive: -11.4%. With `NCCNc1ccc2nnnn2n1` the figure was inactive: 6.05%. As for `O=C(NCC(=O)N(c1ccccc1)C(C(=O)NC1CCCCC1)c1cccnc1)c1ccco1` (stereo unspecified), the activity change, negative = inhibition was inactive: 1.05%. As to `CCOc1ccc(S(=O)(=O)N2CC(=O)Nc3ccccc32)cc1`, the activity change, negative = inhibition was inactive: 5.42%. As to `O=C(CN1C(=O)c2ccccc2S1(=O)=O)NCCSCc1c(F)cccc1Cl`, the activity change, negative = inhibition is inactive: -12%. As for `COc1cccc(C(=O)OCC(=O)Nc2cc(C)on2)c1OC`, the activity change, negative = inhibition was inactive: 4.8%. Take `Cc1ccc([N+](=O)[O-])cc1NC(=O)c1ccccc1`: the activity change, negative = inhibition is inactive: -9.35%. With `COc1ccc(/C=C2\SC(=S)N(CC(=O)NCCO)C2=O)cc1` the figure was inactive: 4.28%; with `O=S(=O)(Nc1nc2ccccc2nc1NCc1ccco1)c1cccs1`, inactive: -16.7%; with `CCOC(=O)CC1C(=O)NCCN1C(=O)c1c(F)cccc1F` (stereo unspecified), inactive: -13.3%.

Consider `COc1cc(NCCCNC(C)C)c2nccc(C)c2c1`, for which the activity change, negative = inhibition was inactive: 1.99%. Consider `NC12CC3CC(CC(C3)C1)C2`, for which the activity change, negative = inhibition is inactive: -12.3%. `O=C(NCCN1CCCC1)c1ccc2c(c1)N(Cc1cccc(Cl)c1)C(=O)c1ccccc1S2(=O)=O`: the activity change, negative = inhibition was inactive: -4.4%. For `COc1cccc(N=C2CC(C)(C)CC(=O)/C2=C(/O)c2ccccc2)c1`, the activity change, negative = inhibition is inactive: -11%. `Cc1nn(-c2ccc(Cl)cc2)c2[nH]c(CCl)cc(=O)c12`: the activity change, negative = inhibition was inactive: 12.5%. Take `CC(C)CCN1CCN(C2CCN(c3ccc4c(c3)OCO4)CC2)CC1CCO` (stereo unspecified): the activity change, negative = inhibition is inactive: -8.13%. With `COc1ccc(C(=O)NCC(=O)N/N=C/c2cccnc2)cc1` the figure was inactive: -0.223%; with `O=C(CNC(=S)N(CCCN1CCOCC1)Cc1cccs1)NC1CCCCC1`, inactive: 2%.
